## Percent effect of library compounds

Source: ChEMBL document CHEMBL3988442, “University of Dundee, Small-Polar-MMV Screening Library” (2021).

The filed quantity is “Percent Effect” (%).
How 0% and 100% were set is not recorded. Most values in the screen are low, and negative values occur.
The compounds are a random part of those screened.
Two or more numbers in one place are separate tests of the same structure; such repeats can differ widely.

A: 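Growth of Mycobacterium tuberculosis over 4 days (cholesterol / DPPC medium with tyloxapol); the read-out is not stated. Tested at 50 µM. Higher reads as more growth inhibition (inferred: compounds with an IC50 in retests scored well above the rest). About 69,000 compounds were tested under these conditions; 0.54% (about 370) showed 50% or more at least once.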
B: 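Growth of Mycobacterium tuberculosis over 3 days (7H9 medium with glucose and tyloxapol); the read-out is not stated. Concentration: 50 µM. The record gives no direction; compounds that gave an IC50 in retests scored well above the rest, so higher reads as more growth inhibition. Of about 69,000 compounds tested this way, about 760 (1.1%) reached 50% or more in at least one test.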

| SMILES | A | B |
|---|---|---|
| `Cc1ccccc1N1CC2(CCN(S(=O)(=O)c3ccccc3)C2)CC1=O` (stereo not shown) | 3.059 | 0.5965 |
| `[H][C@@]12CN(Cc3nccn3C)C(=O)N1CCN(S(C)(=O)=O)C2` | 2.426 | 2.585 & 10.58 |
| `CC(C)(C)C(=O)N1CCC(c2nc(O)cc(-c3ccccn3)n2)CC1` | -18.29 | -44.61 |
| `Cc1c(COC(C)C)cccc1NC(=O)N1CCC(N2CCCC2)C1` (stereo not shown) | 14.12 | 9.119 |
| `COc1ccc(-c2noc(C(CC(C)C)N3CCCCC3=O)n2)cn1` (stereo not shown) | 4.518 | 22.66 |
| `Cn1cc(CCC(=O)N2CCN(Cc3ccncc3)CC2)cn1` | -14.47 | -9.502 |
| `CCc1nccn1C1CCCN(C(=O)c2ccc3c(c2)OCCO3)C1` (stereo not shown) | -10.33 | 17.6 |
| `c1ncc2c(n1)CN(c1ncnc3[nH]ccc13)CC2` | 2.596 | 29.9 |
| `O=C(NCc1nncn1C1CC1)c1cccnc1Oc1ccccc1` | -15.55 | -2.978 |
| `Cc1nc(C#N)c(N2CCC(c3nc(-c4ccccc4)no3)CC2)o1` | 6.993 | 8.991 |
| `Cc1ccc(CCN2CCCC23Cc2ccccc2CNC3=O)cc1` (stereo not shown) | -1.324 | 20.58 |
| `Cn1cc(CC2CCN(C(=O)NCCc3cccc(O)c3)C2)cn1` (stereo not shown) | 0.8761 | -11.54 & -1.419 |
| `Cc1cc(C(=O)N2CCCC3(COCCN(c4ccccc4)C3)C2)[nH]n1` (stereo not shown) | 22.12 | 3.206 & 12.65 |
| `CSc1cccc(CN(C)C(=O)Cn2ncc(N3CCCC3)cc2=O)c1` | 5.798 | -28.93 |
| `N#Cc1cc(F)c(NCc2ccc(F)cc2)c(F)c1` | 8.424 | -12.54 |
| `CC(C)c1ccc(OCCNC(=O)c2ccoc2)cc1` | 31.57 | 24.29 |
| `Fc1ccc(C2(c3noc(CCN4CCCCO4)n3)CCOC2)cc1` (stereo not shown) | -2.419 | -16.1 |
| `CC(C)CN1C[C@H](COCc2ccccc2)Oc2ncccc2C1=O` | -20.82 | -26.4 |
| `CCN1CC(C(=O)NCCn2cccc2)CCC1=O` (stereo not shown) | -4.428 | -2.157 |
| `Cn1cc(CNCCOc2ccc(F)c(F)c2)c(-c2cccnc2)n1` | -5.014 | 14.75 |
| `CC(C)c1[nH]c2ncccc2c1CN1CCOCC1.Cl` | -29.6 | -8.455 |
| `COc1ccccc1OC1(C(=O)O)CCN(c2cnccn2)CC1` | -41.82 | -21.52 |
| `CCOC(=O)CCCNC(=O)CN1CCN(c2ncccn2)CC1` | -27.51 | -39.89 |
| `CCCN1CCC(N2CCOC(Cc3cccc(OC)c3)C2)CC1` (stereo not shown) | -33.01 | 11.21 |
| `OC1(CN2CCCC2)CCCN(c2ncnc3[nH]cnc23)C1` (stereo not shown) | -10.03 & -6.111 | -9.782 |
| `CCOc1ccc(C#N)cc1NCC(=O)Nc1cc(C)no1` | 1.16 | 4.214 |
| `CCOCCN1CCN(Cc2nc(CC(C)C)no2)CC1` | 6.701 | 24.19 |
| `COc1ncnc2c1CCN(Cc1cccc(C)n1)CC2` | 3.757 | 4.013 |
| `COc1ccc2cc(C(=O)N3CCCCC3CC(N)=O)[nH]c2c1` (stereo not shown) | -19.1 | -10.44 |
| `C=C(C)COc1ccccc1C(=O)N1CCC2(CC1)CN(C)CCN2C` | -18.18 | -37.06 |
| `CCC1(CC)C(=O)NC(=O)N/C1=N/c1cccc(OC)c1` | -62.58 | -67.44 |
| `Cc1ccc(CN(C(=O)NC2CCS(=O)(=O)C2)C2CC2)o1` (stereo not shown) | 5.059 | -3.237 |
| `Cc1c(C(=O)NCC(C)C)nnn1-c1cccc2c1CCN(C)C2` | 7.972 | 12.93 & 8.988 |
| `CC(=O)N1CCC2(C1)c1ccccc1S(=O)(=O)N2CCC(C)C` (stereo not shown) | -8.963 | 27.23 |
| `CCC(CC)C(=O)N1CCCc2c(cnn2C)C1` | -0.658 & -2.988 | -7.389 |
| `NC(=O)CCN1CCc2onc(-c3ccccc3F)c2C1` | 7.587 | -30.16 |
| `COCCN(CCC#N)S(=O)(=O)c1cc(F)cc(F)c1` | -18.63 | -20.07 |
| `CC(=O)N1N=C(c2cccs2)OC1C(=O)NCCc1cccc(Cl)c1` (stereo not shown) | -3.291 | -12.61 |
| `COc1ccc(C(=O)NS(=O)(=O)c2cc(Cl)sc2Cl)cc1OC(F)F` | -2.526 & 2.978 | -7.608 |
| `FC(F)(F)c1ccc2nc([C@H]3CCN(C4CCCCC4)C3)[nH]c2c1` | 54.09 | 64.45 & 35.57 |
| `CN(C)CC(=O)N1CCN(c2cc(N3CCCC3CO)ncn2)CC1` (stereo not shown) | -13.78 | -16.79 |
| `NC(=O)C1CCN(c2nccc(-c3c[nH]nc3C3CCCCC3)n2)CC1` | 1.995 | 27.96 |
| `CN(C)C(c1ccccn1)[C@H]1CC[C@H](CNC(=O)C2CCCC2)CC1` (stereo partly shown) | -4.912 | -3.336 |
| `Cc1cc(-c2nn3c(C4CC4)nnc3s2)on1` | -20.49 | -19.2 |
| `CCCC(=O)N(C)Cc1nc(N2CCCC2)ncc1-c1ccncc1.Cl` | -2.977 & 2.214 | -4.736 |

3 of the entries, repeated:

{"smiles": "CC(C)c1[nH]c2ncccc2c1CN1CCOCC1.Cl", "A": -29.6, "B": -8.455}
{"smiles": "CN(C)CC(=O)N1CCN(c2cc(N3CCCC3CO)ncn2)CC1", "stereo": "stereo not shown", "A": -13.78, "B": -16.79}
{"smiles": "CCCC(=O)N(C)Cc1nc(N2CCCC2)ncc1-c1ccncc1.Cl", "A": "-2.977 & 2.214", "B": -4.736}